Measurements reported in PubChem BioAssay AID1259405 (NCATS, 2018)
The whole screen tested about 50,000 reagents; below is an unselected part. Over the whole deposit, about 4,000 (8%) are marked active. 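Mouse siRNA library applied to hamster cells; one well for each siRNA.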 Reagents against one gene are numbered here. Reagent sequences are not shown.

- Purpose: 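Knock-downs that lift recombinant protein yield in hamster ovary cells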 (primary screen)
- System: Chinese hamster CHO-K1 ovary cells with stable secreted eGFP expression
- Reagent: single siRNA against mouse genes, 0.8 pmol siRNA per well (2 µl of 400 nM stock)
- Duration: 3 days
- Read-out: 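Per-well intracellular GFP measured by laser scanning cytometry, plus viability from ATP luminescence, each relative to plate median of non-targeting control wells, in %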
- Direction: GFP, % of control: higher = more GFP per well, higher productivity; viability (ATP), % of control: higher = more viable cells (more ATP)
- Active means: 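Called active when intracellular GFP, relative to negative control, is at or above 120%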

Tubb3 #1
- GFP, % of control: 48.9
- viability (ATP), % of control: 79
- activity call: inactive

Tubb3 #2
- GFP, % of control: 41.2
- viability (ATP), % of control: 70.6
- activity call: inactive

Hilpda #1
- GFP, % of control: 95.2
- viability (ATP), % of control: 94.3
- activity call: inactive

Hilpda #2
- GFP, % of control: 38.7
- viability (ATP), % of control: 39.8
- activity call: inactive

Hilpda #3
- GFP, % of control: 99.9
- viability (ATP), % of control: 100
- activity call: inactive

Sorcs3 #1
- GFP, % of control: 87.1
- viability (ATP), % of control: 106
- activity call: inactive

Sorcs3 #2
- GFP, % of control: 78.1
- viability (ATP), % of control: 85.4
- activity call: inactive

Sorcs3 #3
- GFP, % of control: 57.3
- viability (ATP), % of control: 79.8
- activity call: inactive

Arhgef7 #1
- GFP, % of control: 107
- viability (ATP), % of control: 73.6
- activity call: inactive

Arhgef7 #2
- GFP, % of control: 174
- viability (ATP), % of control: 56.2
- activity call: active

Arhgef7 #3
- GFP, % of control: 52.7
- viability (ATP), % of control: 54.1
- activity call: inactive

Tuba3b #1
- GFP, % of control: 104
- viability (ATP), % of control: 58.8
- activity call: inactive

Tuba3b #2
- GFP, % of control: 103
- viability (ATP), % of control: 70.4
- activity call: inactive

A730018C14Rik #1
- GFP, % of control: 78.9
- viability (ATP), % of control: 91
- activity call: inactive

A730018C14Rik #2
- GFP, % of control: 37.6
- viability (ATP), % of control: 33.7
- activity call: inactive

A730018C14Rik #3
- GFP, % of control: 50.3
- viability (ATP), % of control: 56
- activity call: inactive

Tob1 #1
- GFP, % of control: 65.5
- viability (ATP), % of control: 88
- activity call: inactive

Tob1 #2
- GFP, % of control: 108
- viability (ATP), % of control: 114
- activity call: inactive

Tob1 #3
- GFP, % of control: 111
- viability (ATP), % of control: 142
- activity call: inactive

Map3k12
- GFP, % of control: 91.8
- viability (ATP), % of control: 79.6
- activity call: inactive

Zmynd8 #1
- GFP, % of control: 96.1
- viability (ATP), % of control: 96.3
- activity call: inactive

Zmynd8 #2
- GFP, % of control: 149
- viability (ATP), % of control: 119
- activity call: active

Morc2a #1
- GFP, % of control: 77.6
- viability (ATP), % of control: 55.1
- activity call: inactive

Morc2a #2
- GFP, % of control: 74.4
- viability (ATP), % of control: 62.7
- activity call: inactive

Morc2a #3
- GFP, % of control: 83.5
- viability (ATP), % of control: 97.3
- activity call: inactive

Ube2g1 #1
- GFP, % of control: 73.3
- viability (ATP), % of control: 79.4
- activity call: inactive

Ube2g1 #2
- GFP, % of control: 54
- viability (ATP), % of control: 67.6
- activity call: inactive

Ube2g1 #3
- GFP, % of control: 99.4
- viability (ATP), % of control: 132
- activity call: inactive

Vmn2r66 #1
- GFP, % of control: 80.8
- viability (ATP), % of control: 82
- activity call: inactive

Vmn2r66 #2
- GFP, % of control: 88.2
- viability (ATP), % of control: 77.6
- activity call: inactive

Vmn2r66 #3
- GFP, % of control: 141
- viability (ATP), % of control: 63.9
- activity call: active

Pomp #1
- GFP, % of control: 64.8
- viability (ATP), % of control: 57
- activity call: inactive

Pomp #2
- GFP, % of control: 14.6
- viability (ATP), % of control: 7.62
- activity call: inactive

Pomp #3
- GFP, % of control: 9.82
- viability (ATP), % of control: 3.98
- activity call: inactive

Rpl3 #1
- GFP, % of control: 78.7
- viability (ATP), % of control: 100
- activity call: inactive

Rpl3 #2
- GFP, % of control: 23.5
- viability (ATP), % of control: 17.3
- activity call: inactive

Rpl3 #3
- GFP, % of control: 43.2
- viability (ATP), % of control: 43.6
- activity call: inactive

Matcap1 #1
- GFP, % of control: 80
- viability (ATP), % of control: 115
- activity call: inactive

Matcap1 #2
- GFP, % of control: 69.3
- viability (ATP), % of control: 79.9
- activity call: inactive

Matcap1 #3
- GFP, % of control: 92.8
- viability (ATP), % of control: 88.6
- activity call: inactive

Hcrtr2 #1
- GFP, % of control: 43.1
- viability (ATP), % of control: 47.8
- activity call: inactive

Hcrtr2 #2
- GFP, % of control: 73.2
- viability (ATP), % of control: 69.3
- activity call: inactive

Hcrtr2 #3
- GFP, % of control: 46.2
- viability (ATP), % of control: 60.5
- activity call: inactive

Kdm6a #1
- GFP, % of control: 49.5
- viability (ATP), % of control: 54.7
- activity call: inactive

Kdm6a #2
- GFP, % of control: 85.9
- viability (ATP), % of control: 62.1
- activity call: inactive

Kdm6a #3
- GFP, % of control: 102
- viability (ATP), % of control: 98.7
- activity call: inactive

Psg28 #1
- GFP, % of control: 65
- viability (ATP), % of control: 51.3
- activity call: inactive

Psg28 #2
- GFP, % of control: 53.6
- viability (ATP), % of control: 44.2
- activity call: inactive

Psg28 #3
- GFP, % of control: 57.6
- viability (ATP), % of control: 95.4
- activity call: inactive

Gjb1 #1
- GFP, % of control: 61.4
- viability (ATP), % of control: 70.1
- activity call: inactive

Gjb1 #2
- GFP, % of control: 68.9
- viability (ATP), % of control: 70.3
- activity call: inactive

Gjb1 #3
- GFP, % of control: 88.4
- viability (ATP), % of control: 114
- activity call: inactive

Entries above with an active call, once more:
Arhgef7 #2
- GFP, % of control: 174
- viability (ATP), % of control: 56.2
- activity call: active

Zmynd8 #2
- GFP, % of control: 149
- viability (ATP), % of control: 119
- activity call: active

Vmn2r66 #3
- GFP, % of control: 141
- viability (ATP), % of control: 63.9
- activity call: active
